# PubChem BioAssay AID540276 (National Center for Advancing Translational Sciences (NCATS), 2011)
# The campaign covered roughly 300,000 compounds. About 5,400 (1.8%) were called active. The shares of active, inactive and inconclusive entries below differ from those in the screen. The call rests on the fitted dose curve; tested in HEK293 cells. Where the call is inconclusive, the potency comes from a doubtful curve fit.
# Assay: qHTS for inhibitors of binding or entry into cells for Marburg Virus
# Conditions: Marburg virus pseudotyped entry inhibition, cell reporter; series mostly up to 37.8 µM
# Potency means the concentration at half of the fitted maximal effect.
row,SMILES,Potency
1,COC1=C(N)C(=O)c2nc(-c3nc(C(=O)O)c(C)c(-c4ccc(OC)c(OC)c4O)c3N)ccc2C1=O,active: 0.058 µM
2,Cc1ccc(-c2ccc(CCC(=O)O)n2-c2cccc(C)c2C)cc1,inactive
3,COc1cc(/C=C2\C(=O)NC(=O)N(CCc3ccc(F)cc3)C2=O)ccc1O,inactive
4,CCc1c(C)sc(NC(=O)OC)c1C(N)=O,inactive
5,Cn1cc(C(=O)NCc2ccc(F)cc2)cn1,"inconclusive: 1.58 µM [inhibitor, single point]"
6,CC(C)(C)SCCNC(=O)CN(c1ccc(F)cc1)S(=O)(=O)c1ccccc1,"inconclusive: 25.1 µM [inhibitor, partial curve, poor fit]"
7,CCCCC(=O)Nc1ccc(C(=O)N2CCN(C)CC2)cc1,"inconclusive: 8.2 µM [activator, partial curve]"
8,Cc1ccc(C(=O)N2CCCN(c3nc4cc5c(cc4cc3C#N)OCO5)CC2)cc1,"inconclusive: 6.31 µM [inhibitor, full curve]"
9,CC1CCN(C(=O)CCCC(=O)O)CC1,inactive
10,CC/C(=N\NC(=O)c1ccoc1C)c1ccc(C)o1,"inconclusive: 0.631 µM [activator, full curve, poor fit]"
11,Nc1nc[nH]c(=O)c1N=Cc1ccccc1,inactive
12,CN1CCCN(C2C3CC4CC(C3)CC2C4)CC1 (stereo not drawn),"inconclusive: 18.3 µM [inhibitor, single point]"
13,Cc1cc(C)cc(N(C(C)C(=O)N2CCCC2)S(C)(=O)=O)c1 (stereo not drawn),"inconclusive: 5.01 µM [inhibitor, single point]"
14,Cc1ccc(C)c(OCC(=O)Nc2ccccc2N2CCCC2)c1,"inconclusive: 35.5 µM [inhibitor, single point]"
15,Cc1ccccc1OCc1nc2ccccc2c(=O)n1/N=C/c1cn[nH]c1-c1ccc(Br)cc1,"inconclusive: 2.51 µM [inhibitor, full curve, poor fit]"
16,Cc1cccc(NC(=O)c2cc(-c3ccccn3)nc3ccccc23)c1C,"inconclusive: 12.6 µM [inhibitor, single point]"
17,O=C(NCc1cccnc1)c1nc(-c2cccs2)no1,"inconclusive: 35.5 µM [activator, single point]"
18,O=S(=O)(NCc1csc(-c2cccs2)n1)c1cccs1,inactive
19,COc1ccc(NC(=O)c2cc(-c3ccco3)nc3ccccc23)cc1,"inconclusive: 3.55 µM [inhibitor, single point]"
20,COC(=O)C(Cc1csc2ccc(Cl)cc12)NC(=O)c1ccc(Cl)cc1 (stereo not drawn),"inconclusive: 20 µM [inhibitor, partial curve, poor fit]"
21,Cc1cc(NC(=O)Nc2nnc(N3CCCCC3)s2)ccc1Br,"inconclusive: 2.82 µM [inhibitor, partial curve, poor fit]"
22,O=S(=O)(c1ccc(Br)cc1)N1CCCN(Cc2ccccc2F)CC1,"inconclusive: 6.31 µM [activator, partial curve, poor fit]"

row,SMILES,Potency
1,COc1ccc(OC)c(NC(=O)c2c3c(nc4ccccc24)CCC3)c1,"inconclusive: 0.92 µM [inhibitor, partial curve]"
2,CC(CCN1CCN(c2ccc(F)cc2)CC1)c1ccccc1 (stereo not drawn),"inconclusive: 20 µM [inhibitor, partial curve, poor fit]"
3,O=C(Nc1ccccc1)c1ccc(Nc2c([N+](=O)[O-])cc([N+](=O)[O-])c3ccccc23)cc1,"inconclusive: 6.31 µM [inhibitor, full curve, poor fit]"
4,C=CCN(CC=C)C(=O)COC(=O)c1n[nH]c2ccccc12,"inconclusive: 5.01 µM [inhibitor, single point]"
5,COc1ccc2c(c1)sc1nc(-c3ccccc3)cn12,active: 0.708 µM
6,COc1cc(/C=C/C(=O)OCC(=O)NC(=O)NC(C)(C)C)ccc1OCC#N,"inconclusive: 35.5 µM [inhibitor, partial curve, poor fit]"
7,N#CCCn1cc(C(=O)CN2C(=O)NC3(CCCCCC3)C2=O)c2ccccc21,"inconclusive: 0.0891 µM [activator, full curve, poor fit]"
8,CSc1ccccc1NC(=O)CSCc1ccc(Br)cc1,"inconclusive: 0.447 µM [inhibitor, full curve, poor fit]"
9,CCCCn1c2c(c(=N)c3c1CCC3)CCC2,"inconclusive: 15.8 µM [inhibitor, partial curve, poor fit]"
10,COc1ccc(Nc2cc(Nc3ccc(OC)cc3)ncn2)cc1,inactive
11,O=C(CSc1nc2ccccc2c2c1CCCC2)N1CCOCC1,"inconclusive: 29.1 µM [inhibitor, single point]"
12,O=C(NCCOc1ccccc1Cl)c1cc(F)c(F)cc1Cl,"inconclusive: 35.5 µM [inhibitor, single point]"
13,COc1cc(OC)c(NC(=O)Cn2cnc3sc(C)c(S(=O)(=O)N4CCC(C)CC4)c3c2=O)cc1Cl,"inconclusive: 12.6 µM [inhibitor, single point]"
14,CCCCN(C(=O)CSc1n[nH]c(-c2ccc(C)cc2)n1)c1c(N)n(CCCC)c(=O)[nH]c1=O,inactive
15,CC1(C)Cc2nc3sc4c(SCC(=O)NCc5ccco5)ncnc4c3cc2CO1,"inconclusive: 5.01 µM [inhibitor, full curve, poor fit]"
16,CCN(C(=O)COC(=O)C(O)(c1ccccc1)c1ccccc1)c1c(N)n(Cc2ccccc2)c(=O)[nH]c1=O,inactive
17,CCOC(=O)c1c(-c2ccc(C)s2)csc1NC(=O)c1cccs1,inactive
18,CCCCC(c1nnnn1CC1CCCO1)N1CCN(Cc2ccccc2)CC1 (stereo not drawn),"inconclusive: 35.5 µM [inhibitor, single point]"
19,COc1cccc(C2CC(c3c(-c4ccccc4)c4cc(Cl)ccc4[nH]c3=O)=NN2S(C)(=O)=O)c1OC (stereo not drawn),"inconclusive: 35.5 µM [inhibitor, single point]"
20,CCOC(=O)C1CCCN(C(=O)CSc2ccccc2)C1 (stereo not drawn),inactive
21,COc1ccccc1CNc1nc2nc(C)c(Cl)c(=O)n2[nH]1,"inconclusive: 1.16 µM [inhibitor, partial curve, poor fit]"

# Grouped by structure: the entries above with a tert-butyl group.
row,SMILES,Potency
6,CC(C)(C)SCCNC(=O)CN(c1ccc(F)cc1)S(=O)(=O)c1ccccc1,"inconclusive: 25.1 µM [inhibitor, partial curve, poor fit]"
6,COc1cc(/C=C/C(=O)OCC(=O)NC(=O)NC(C)(C)C)ccc1OCC#N,"inconclusive: 35.5 µM [inhibitor, partial curve, poor fit]"
